According to paper PMC9244803, “Development and Optimization of Bifunctional Fusion Proteins to Locally Modulate Complement Activation in Diseased Tissue” (Frontiers in Immunology, 2022):
Results are given in words; binding and its absence hold for the method and conditions named.

Chains of the proteins cited; added tags and fusions are not shown. Residues count along the entry.
UniProt P01024, residues 1002-1303: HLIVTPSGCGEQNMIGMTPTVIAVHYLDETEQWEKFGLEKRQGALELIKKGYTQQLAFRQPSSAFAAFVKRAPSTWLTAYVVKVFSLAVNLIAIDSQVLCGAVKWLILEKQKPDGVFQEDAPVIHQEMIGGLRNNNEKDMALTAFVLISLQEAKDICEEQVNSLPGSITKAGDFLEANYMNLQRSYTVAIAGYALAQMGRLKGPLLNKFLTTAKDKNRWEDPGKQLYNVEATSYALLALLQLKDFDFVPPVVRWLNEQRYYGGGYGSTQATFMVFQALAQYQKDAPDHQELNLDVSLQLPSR
UniProt Q64735, residues 41-405: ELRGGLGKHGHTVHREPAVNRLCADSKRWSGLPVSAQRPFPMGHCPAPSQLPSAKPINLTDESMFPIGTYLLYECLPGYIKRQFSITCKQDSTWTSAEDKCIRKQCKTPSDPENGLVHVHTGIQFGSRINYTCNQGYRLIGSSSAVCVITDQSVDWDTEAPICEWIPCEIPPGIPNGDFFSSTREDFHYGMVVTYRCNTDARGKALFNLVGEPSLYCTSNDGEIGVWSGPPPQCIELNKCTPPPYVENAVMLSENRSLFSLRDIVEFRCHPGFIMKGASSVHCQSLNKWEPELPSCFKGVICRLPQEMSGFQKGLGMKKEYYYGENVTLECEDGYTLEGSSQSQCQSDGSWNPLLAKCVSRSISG

Experiments:
[1] = target: Human C3d protein (Complement Technologies) (human) (UniProt P01024); experiment: SPR; Biacore 3000, 25°C; human C3d amine-coupled at 20-30 RU on a CM5 chip; antibodies and fusion proteins 0-200 nM flowed over in HBS-EP+; Langmuir (1:1) model; both purified
[2] = target: Human C3d protein (Complement Technologies) (human) (UniProt P01024); experiment: ELISA; indirect ELISA; human C3d coated on 96-well plates overnight at 4°C; samples in PBS plus 0.1% BSA, 1 hour at ambient temperature; HRP-conjugated secondary antibody; EC50 by four-parameter fit; both purified

binding [1]: no binding (tested: 0-200 nM)
binding [2]: no binding
Substance: murine Fc−Crry (from UniProt Q64735 41-405) (Fc fusion)
